Results taken from patent publication US12600746 (dated 2026).

Legend:
[1] = general procedure: Fmoc solid-phase peptide synthesis; Rink amide; PyBOP / NMM (resin loading); details: whole synthesis
[2] = general procedure: Fmoc solid-phase peptide synthesis; Rink amide resin; 2-chlorotrityl chloride resin; hydrazine-derivatized 2-chlorotrityl chloride resin; PyBOP / NMM (resin loading)
[3] = general procedure: Fmoc solid-phase peptide synthesis; 2-CTC; PyBOP / NMM (resin loading); details: whole synthesis
[4] = general procedure: Fmoc solid-phase peptide synthesis; hydrazine-functionalized 2-CTC; PyBOP / NMM (resin loading); details: whole synthesis
[5] = general procedure: Fmoc solid-phase peptide synthesis; hydrazine-derived 2-CTC; PyBOP / NMM (resin loading); details: whole synthesis; for isolated yield: based on original resin loading
[6] = Fmoc solid-phase peptide synthesis; hydrazine-derived 2-CTC; PyBOP / NMM (resin loading); details: whole synthesis, scale 3×250 μmol
[7] = Fmoc solid-phase peptide synthesis; Rink amide; PyBOP / NMM (resin loading); details: whole synthesis, scale 250 μmol
[8] = scale of the general procedure 200 μmol

Question: With (H-USPGYS-NH2)2 as the substance, how does the isolated mass [1] read?
Answer: 78 mg

Question: And the isolated yield [1, 8]?
Answer: 61% yield

Question: For Ac-(LYRANA)2CSPGYS-NH2, which step yield ([2]; coupling step) is on record?
Answer: 62% yield

Question: For Ac-(LYRANV)2CSPGYS-NH2, which step yield ([2]; coupling step) is on record?
Answer: 58% yield

Question: What does the source list for Ac-LYRANA-S(CH2)2CO2Et?
Answer: isolated mass ([3]; scale 730 μmol): 288 mg; isolated yield ([3]; scale 730 μmol): 46%

Question: For Ac-LYRANA-SCH2CF3, which isolated mass ([4]; scale 480 μmol) is on record?
Answer: 351 mg

Question: And the isolated yield ([4]; scale 480 μmol)?
Answer: 86%

Question: What does the source list for Ac-LYRANAASPGYS-NH2?
Answer: step yield ([2]; coupling step): isolated yield 66%; step yield ([2]; coupling step, over two steps): 65%; step yield ([2]; coupling step, run 1): 69% yield; step yield ([2]; coupling step, run 2): 65% yield

Question: What does the source list for Ac-LYRANACSPGYS-NH2?
Answer: step yield ([2]; coupling step, run 1): 67%; step yield ([2]; coupling step, run 2): 68%; step yield ([2]; coupling step, run 3): isolated yield 68%; step yield ([2]; coupling step, run 4): 67% yield

Question: For Ac-LYRANF-SePh, which isolated mass [3] is on record?
Answer: 13.2 mg

Question: And the isolated yield [3, 8]?
Answer: 37% yield

Question: Which results are given for Ac-LYRANV-S(CH2)2CO2Et?
Answer: isolated mass ([3]; scale 350 μmol): 128 mg; isolated yield ([3]; scale 350 μmol): 41%

Question: With Ac-LYRANV-SCH2CF3 as the substance, how does the isolated mass ([4]; scale 640 μmol) read?
Answer: 431 mg

Question: What about the isolated yield ([4]; scale 640 μmol) of the same substance?
Answer: 77%

Question: Which isolated yield [3, 8] does the source give for Ac-LYRANV-SePh here?
Answer: 77% yield

Question: For Ac-LYRANVASPGYS-NH2, which step yield ([2]; coupling step) is on record?
Answer: isolated yield 66%

Question: What about the step yield ([2]; coupling step, over two steps) of the same substance?
Answer: 63%

Question: What about the step yield ([2]; coupling step, run 1) of the same substance?
Answer: 61% yield

Question: What about the step yield ([2]; coupling step, run 2) of the same substance?
Answer: 63% yield

Question: What does the source list for Ac-LYRANVCSPGYS-NH2?
Answer: step yield ([2]; coupling step): 65%; step yield ([2]; coupling step, run 1): 67% yield; step yield ([2]; coupling step, run 2): 65% yield

Question: Which results are given for H-(β-SH) DSPGYS-NH2?
Answer: isolated mass ([1]; scale 50 μmol): 11.8 mg; isolated yield ([1]; scale 50 μmol): 36% yield

Question: Which step yield ([2]; late stage modification step) does the source give for H-ASPGYS-NH2 here?
Answer: 82% yield

Question: Which step yield ([2]; late stage modification step) does the source give for H-ASPMYS-NH2 here?
Answer: 74% yield

Question: With H-CSPGYS-NH2 as the substance, how does the isolated mass ([1]; scale 730 μmol) read?
Answer: 257 mg

Question: What about the isolated yield ([1]; scale 730 μmol) of the same substance?
Answer: 57%

Question: For H-CSPMYS-NH2, which isolated mass ([1]; scale 100 μmol) is on record?
Answer: 17.4 mg

Question: And the isolated yield ([1]; scale 100 μmol)?
Answer: 22% yield

Question: With H-DSPGYS-NH2 as the substance, how does the step yield ([2]; late stage modification step) read?
Answer: 50% yield

Question: Which step yield ([2]; late stage modification step) does the source give for H-VSPGYS-NH2 here?
Answer: 83% yield

Question: With H-[Pen]SPGYS-NH2 as the substance, how does the isolated mass ([1]; scale 100 μmol) read?
Answer: 18.1 mg

Question: What about the isolated yield ([1]; scale 100 μmol) of the same substance?
Answer: 28% yield

Question: For enfuvirtide, which step yield ([2]; coupling step) is on record?
Answer: 40%

Question: Which isolated yield ([5]; scale 125 μmol) does the source give for enfuvirtide(1-18) here?
Answer: 22%

Question: And the isolated mass ([5]; scale 125 μmol)?
Answer: 70 mg

Question: Which isolated yield ([1]; based on original resin loading, scale 100 μmol) does the source give for enfuvirtide(19-36) here?
Answer: 20%

Question: And the isolated mass ([1]; scale 100 μmol)?
Answer: 51.6 mg

Question: Which step yield ([2]; coupling step) does the source give for somatorelin here?
Answer: 57%

Question: Which isolated mass [6] does the source give for somatorelin(1-18) here?
Answer: 272.0 mg

Question: What about the isolated yield ([5]; scale 3×250 μmol) of the same substance?
Answer: 14.6%

Question: For somatorelin(19-44), which isolated mass [7] is on record?
Answer: 234.0 mg

Question: What about the isolated yield ([1]; based on original resin loading, scale 250 μmol) of the same substance?
Answer: 24%

Square brackets hold non-standard residues; d marks the D form. Pen = CC(C)(S)[C@H](N)C(=O)O
